Reference: publication PMC5834214
Results are given in words; binding and its absence hold for the method and conditions named. In cells and extracts the contact can be indirect. These calls come from enrichment with a bait or labelling near it, and not all partners need be listed.

By UniProt entry, the sequences of proteins in these tests, tags left out.
UniProt P09992: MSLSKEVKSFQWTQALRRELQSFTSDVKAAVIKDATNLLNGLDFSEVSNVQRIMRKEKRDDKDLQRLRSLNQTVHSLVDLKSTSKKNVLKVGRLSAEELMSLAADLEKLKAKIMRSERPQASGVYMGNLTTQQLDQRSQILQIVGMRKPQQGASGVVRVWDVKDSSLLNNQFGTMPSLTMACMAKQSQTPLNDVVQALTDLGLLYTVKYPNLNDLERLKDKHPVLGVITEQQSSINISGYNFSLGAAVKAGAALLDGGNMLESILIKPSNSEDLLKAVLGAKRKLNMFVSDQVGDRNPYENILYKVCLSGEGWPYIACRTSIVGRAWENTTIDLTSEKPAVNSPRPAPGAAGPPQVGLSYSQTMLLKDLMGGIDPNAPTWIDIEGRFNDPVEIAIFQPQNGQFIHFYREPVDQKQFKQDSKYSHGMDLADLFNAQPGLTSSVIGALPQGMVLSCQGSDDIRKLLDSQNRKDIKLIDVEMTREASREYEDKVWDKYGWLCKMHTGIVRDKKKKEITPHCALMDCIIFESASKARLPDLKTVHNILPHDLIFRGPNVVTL

B1: LIM and SH3 domain protein 1 (protein, UniProt Q14847 1-261)
chain: MNPNCARCGKIVYPTEKVNCLDKFWHKACFHCETCKMTLNMKNYKGYEKKPYCNAHYPKQSFTMVADTPENLRLKQQSELQSQVRYKEEFEKNKGKGFSVVADTPELQRIKKTQDQISNIKYHEEFEKSRMGPSGGEGMEPERRDSQDGSSYRRPLEQQQPHHIPTSAPVYQQPQQQPVAQSYGGYKEPAAPVSIQRSAPGGGGKRYRAVYDYSAADEDEVSFQDGDTIVNVQQIDDGWMYGTVERTGDTGMLPANYVEAI
B2: Heterogeneous nuclear ribonucleoprotein H3 (protein, UniProt P31942 1-346)
chain: MDWVMKHNGPNDASDGTVRLRGLPFGCSKEEIVQFFQGLEIVPNGITLTMDYQGRSTGEAFVQFASKEIAENALGKHKERIGHRYIEIFRSSRSEIKGFYDPPRRLLGQRPGPYDRPIGGRGGYYGAGRGSMYDRMRRGGDGYDGGYGGFDDYGGYNNYGYGNDGFDDRMRDGRGMGGHGYGGAGDASSGFHGGHFVHMRGLPFRATENDIANFFSPLNPIRVHIDIGADGRATGEADVEFVTHEDAVAAMSKDKNNMQHRYIELFLNSTPGGGSGMGGSGMGGYGRDGMDNQGGYGSVGRMGMGNNYSGGYGTPDGLGGYGRGGGGSGGYYGQGGMSGGGWRGMY
B3: Arginine—tRNA ligase, cytoplasmic (protein, UniProt P54136 1-660)
chain: MDVLVSECSARLLQQEEEIKSLTAEIDRLKNCGCLGASPNLEQLQEENLKLKYRLNILRKSLQAERNKPTKNMINIISRLQEVFGHAIKAAYPDLENPPLLVTPSQQAKFGDYQCNSAMGISQMLKTKEQKVNPREIAENITKHLPDNECIEKVEIAGPGFINVHLRKDFVSEQLTSLLVNGVQLPALGENKKVIVDFSSPNIAKEMHVGHLRSTIIGESISRLFEFAGYDVLRLNHVGDWGTQFGMLIAHLQDKFPDYLTVSPPIGDLQVFYKESKKRFDTEEEFKKRAYQCVVLLQGKNPDITKAWKLICDVSRQELNKIYDALDVSLIERGESFYQDRMNDIVKEFEDRGFVQVDDGRKIVFVPGCSIPLTIVKSDGGYTYDTSDLAAIKQRLFEEKADMIIYVVDNGQSVHFQTIFAAAQMIGWYDPKVTRVFHAGFGVVLGEDKKKFKTRSGETVRLMDLLGEGLKRSMDKLKEKERDKVLTAEELNAAQTSVAYGCIKYADLSHNRLNDYIFSFDKMLDDRGNTAAYLLYAFTRIRSIARLANIDEEMLQKAARETKILLDHEKEWKLGRCILRFPEILQKILDDLFLHTLCDYIYELATAFTEFYDSCYCVEKDRQTGKILKVNMWRMLLCEAVAAVMAKGFDILGIKPVQRM
B4: Keratin, type II cuticular Hb1 (protein, UniProt Q14533 1-505)
chain: MTCGSGFGGRAFSCISACGPRPGRCCITAAPYRGISCYRGLTGGFGSHSVCGGFRAGSCGRSFGYRSGGVCGPSPPCITTVSVNESLLTPLNLEIDPNAQCVKQEEKEQIKSLNSRFAAFIDKVRFLEQQNKLLETKLQFYQNRECCQSNLEPLFEGYIETLRREAECVEADSGRLASELNHVQEVLEGYKKKYEEEVSLRATAENEFVALKKDVDCAYLRKSDLEANVEALIQEIDFLRRLYEEEILILQSHISDTSVVVKLDNSRDLNMDCIIAEIKAQYDDIVTRSRAEAESWYRSKCEEMKATVIRHGETLRRTKEEINELNRMIQRLTAEVENAKCQNSKLEAAVAQSEQQGEAALSDARCKLAELEGALQKAKQDMACLIREYQEVMNSKLGLDIEIATYRRLLEGEEQRLCEGIGAVNVCVSSSRGGVVCGDLCVSGSRPVTGSVCSAPCNGNVAVSTGLCAPCGQLNTTCGGGSCGVGSCGISSLGVGSCGSSCRKC
B5: RNA-binding protein 14 (protein, UniProt Q96PK6 1-669)
chain: MKIFVGNVDGADTTPEELAALFAPYGTVMSCAVMKQFAFVHMRENAGALRAIEALHGHELRPGRALVVEMSRPRPLNTWKIFVGNVSAACTSQELRSLFERRGRVIECDVVKDYAFVHMEKEADAKAAIAQLNGKEVKGKRINVELSTKGQKKGPGLAVQSGDKTKKPGAGDTAFPGTGGFSATFDYQQAFGNSTGGFDGQARQPTPPFFGRDRSPLRRSPPRASYVAPLTAQPATYRAQPSVSLGAAYRAQPSASLGVGYRTQPMTAQAASYRAQPSVSLGAPYRGQLASPSSQSAAASSLGPYGGAQPSASALSSYGGQAAAASSLNSYGAQGSSLASYGNQPSSYGAQAASSYGVRAAASSYNTQGAASSLGSYGAQAASYGAQSAASSLAYGAQAASYNAQPSASYNAQSAPYAAQQAASYSSQPAAYVAQPATAAAYASQPAAYAAQATTPMAGSYGAQPVVQTQLNSYGAQASMGLSGSYGAQSAAAATGSYGAAAAYGAQPSATLAAPYRTQSSASLAASYAAQQHPQAAASYRGQPGNAYDGAGQPSAAYLSMSQGAVANANSTPPPYERTRLSPPRASYDDPYKKAVAMSKRYGSDRRLAELSDYRRLSESQLSFRRSPTKSSLDYRRLPDAHSDYARYSGSYNDYLRAAQMHSGYQRRM
B6: Ataxin-2-like protein (protein, UniProt Q8WWM7 1-1075)
chain: MLKPQPLQQPSQPQQPPPTQQAVARRPPGGTSPPNGGLPGPLATSAAPPGPPAAASPCLGPVAAAGSGLRRGAEGILAPQPPPPQQHQERPGAAAIGSARGQSTGKGPPQSPVFEGVYNNSRMLHFLTAVVGSTCDVKVKNGTTYEGIFKTLSSKFELAVDAVHRKASEPAGGPRREDIVDTMVFKPSDVMLVHFRNVDFNYATKDKFTDSAIAMNSKVNGEHKEKVLQRWEGGDSNSDDYDLESDMSNGWDPNEMFKFNEENYGVKTTYDSSLSSYTVPLEKDNSEEFRQRELRAAQLAREIESSPQYRLRIAMENDDGRTEEEKHSAVQRQGSGRESPSLASREGKYIPLPQRVREGPRGGVRCSSSRGGRPGLSSLPPRGPHHLDNSSPGPGSEARGINGGPSRMSPKAQRPLRGAKTLSSPSNRPSGETSVPPPPAVGRMYPPRSPKSAAPAPISASCPEPPIGSAVPTSSASIPVTSSVSDPGVGSISPASPKISLAPTDVKELSTKEPGRTLEPQELARIAGKVPGLQNEQKRFQLEELRKFGAQFKLQPSSSPENSLDPFPPRILKEEPKGKEKEVDGLLTSEPMGSPVSSKTESVSDKEDKPPLAPSGGTEGPEQPPPPCPSQTGSPPVGLIKGEDKDEGPVAEQVKKSTLNPNAKEFNPTKPLLSVNKSTSTPTSPGPRTHSTPSIPVLTAGQSGLYSPQYISYIPQIHMGPAVQAPQMYPYPVSNSVPGQQGKYRGAKGSLPPQRSDQHQPASAPPMMQAAAAAGPPLVAATPYSSYIPYNPQQFPGQPAMMQPMAHYPSQPVFAPMLQSNPRMLTSGSHPQAIVSSSTPQYPSAEQPTPQALYATVHQSYPHHATQLHAHQPQPATTPTGSQPQSQHAAPSPVQHQAGQAPHLGSGQPQQNLYHPGALTGTPPSLPPGPSAQSPQSSFPQPAAVYAIHHQQLPHGFTNMAHVTQAHVQTGITAAPPPHPGAPHPPQVMLLHPPQSHGGPPQGAVPQSGVPALSASTPSPYPYIGHPQGEQPGQAPGFPGGADDRIREFSLAGGIWHGRAEGLQVGQDARVLGGE
B7: ADP/ATP translocase 3 (protein, UniProt P12236 1-298)
chain: MTEQAISFAKDFLAGGIAAAISKTAVAPIERVKLLLQVQHASKQIAADKQYKGIVDCIVRIPKEQGVLSFWRGNLANVIRYFPTQALNFAFKDKYKQIFLGGVDKHTQFWRYFAGNLASGGAAGATSLCFVYPLDFARTRLAADVGKSGTEREFRGLGDCLVKITKSDGIRGLYQGFSVSVQGIIIYRAAYFGVYDTAKGMLPDPKNTHIVVSWMIAQTVTAVAGVVSYPFDTVRRRMMMQSGRKGADIMYTGTVDCWRKIFRDEGGKAFFKGAWSNVLRGMGGAFVLVLYDELKKVI
B8: Ribosome-binding protein 1 (protein, UniProt Q9P2E9 1-1410)
chain: MDIYDTQTLGVVVFGGFMVVSAIGIFLVSTFSMKETSYEEALANQRKEMAKTHHQKVEKKKKEKTVEKKGKTKKKEEKPNGKIPDHDPAPNVTVLLREPVRAPAVAVAPTPVQPPIIVAPVATVPAMPQEKLASSPKDKKKKEKKVAKVEPAVSSVVNSIQVLTSKAAILETAPKEVPMVVVPPVGAKGNTPATGTTQGKKAEGTQNQSKKAEGAPNQGRKAEGTPNQGKKTEGTPNQGKKAEGTPNQGKKAEGTPNQGKKAEGAQNQGKKVDTTPNQGKKVEGAPTQGRKAEGAQNQAKKVEGAQNQGKKAEGAQNQGKKGEGAQNQGKKAEGAQNQGKKAEGAQNQGKKAEGAQNQGKKAEGAQNQGKKAEGAQNQGKKAEGAQNQGKKVEGAQNQGKKAEGAQNQGKKAEGAQNQGKKAEGAQNQGKKAEGAQNQGKKAEGAQNQGKKAEGAQNQGKKAEGAQNQGKKVEGAQNQGKKAEGAQNQGKKAEGAQNQGKKAEGAQNQGQKGEGAQNQGKKTEGAQGKKAERSPNQGKKGEGAPIQGKKADSVANQGTKVEGITNQGKKAEGSPSEGKKAEGSPNQGKKADAAANQGKKTESASVQGRNTDVAQSPEAPKQEAPAKKKSGSKKKGEPGPPDADGPLYLPYKTLVSTVGSMVFNEGEAQRLIEILSEKAGIIQDTWHKATQKGDPVAILKRQLEEKEKLLATEQEDAAVAKSKLRELNKEMAAEKAKAAAGEAKVKKQLVAREQEITAVQARMQASYREHVKEVQQLQGKIRTLQEQLENGPNTQLARLQQENSILRDALNQATSQVESKQNAELAKLRQELSKVSKELVEKSEAVRQDEQQRKALEAKAAAFEKQVLQLQASHRESEEALQKRLDEVSRELCHTQSSHASLRADAEKAQEQQQQMAELHSKLQSSEAEVRSKCEELSGLHGQLQEARAENSQLTERIRSIEALLEAGQARDAQDVQASQAEADQQQTRLKELESQVSGLEKEAIELREAVEQQKVKNNDLREKNWKAMEALATAEQACKEKLLSLTQAKEESEKQLCLIEAQTMEALLALLPELSVLAQQNYTEWLQDLKEKGPTLLKHPPAPAEPSSDLASKLREAEETQSTLQAECDQYRSILAETEGMLRDLQKSVEEEEQVWRAKVGAAEEELQKSRVTVKHLEEIVEKLKGELESSDQVREHTSHLEAELEKHMAAASAECQNYAKEVAGLRQLLLESQSQLDAAKSEAQKQSDELALVRQQLSEMKSHVEDGDIAGAPASSPEAPPAEQDPVQLKTQLEWTEAILEDEQTQRQKLTAEFEEAQTSACRLQEELEKLRTAGPLESSETEEASQLKERLEKEKKLTSDLGRAATRLQELLKTTQEQLAREKDTVKKLQEQLEKAEDGSSSKEGTSV
B9: Protein disulfide-isomerase A6 (protein, UniProt Q15084 20-440)
chain: LYSSSDDVIELTPSNFNREVIQSDSLWLVEFYAPWCGHCQRLTPEWKKAATALKDVVKVGAVDADKHHSLGGQYGVQGFPTIKIFGSNKNRPEDYQGGRTGEAIVDAALSALRQLVKDRLGGRSGGYSSGKQGRSDSSSKKDVIELTDDSFDKNVLDSEDVWMVEFYAPWCGHCKNLEPEWAAAASEVKEQTKGKVKLAAVDATVNQVLASRYGIRGFPTIKIFQKGESPVDYDGGRTRSDIVSRALDLFSDNAPPPELLEIINEDIAKRTCEEHQLCVVAVLPHILDTGAAGRNSYLEVLLKLADKYKKKMWGWLWTEAGAQSELETALGIGGFGYPAMAAINARKMKFALLKGSFSEQGINEFLRELSFGRGSTAPVGGGAFPTIVEREPWDGRDGELPVEDDIDLSDVELDDLGKDEL

Target: Strep-tagged nucleoprotein (NP) of lymphocytic choriomeningitis virus, encoded by rLCMV/Strep-NP (lymphocytic choriomeningitis virus (LCMV), clone 13) (UniProt P09992)
Assay: affinity purification with mass spectrometry

Question: Which binding does the source give for B1 here?
Answer: binds

Question: B2 was tested. Which binding did it give?
Answer: binds

Question: How did the binding turn out when B3 was run?
Answer: binds

Question: How did the binding turn out when B4 was run?
Answer: binds

Question: With B5 as the binder, how does the binding read?
Answer: binds

Question: B6 was tested. Which binding did it give?
Answer: binds

Question: For B7, which binding is on record?
Answer: binds

Question: How did the binding turn out when B8 was run?
Answer: binds

Question: With B9 as the binder, how does the binding read?
Answer: binds
